These are yes or no findings as the source states them, for the method shown.
T1: OsMIF2 (mini zinc finger 2) (rice (Oryza sativa)) (UniProt B9GBM3)
T1 sequence: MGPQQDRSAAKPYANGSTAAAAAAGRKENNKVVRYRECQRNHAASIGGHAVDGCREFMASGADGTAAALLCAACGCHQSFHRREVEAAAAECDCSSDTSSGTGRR

T2: OsS1Fa2 (site 1 binding factor a2) (rice (Oryza sativa)) (UniProt Q7XLX6)
T2 sequence: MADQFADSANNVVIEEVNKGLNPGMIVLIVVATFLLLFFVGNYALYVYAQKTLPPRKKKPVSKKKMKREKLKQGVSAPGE

T3: OsS1Fa1 (site 1 binding factor a1) (rice (Oryza sativa)) (UniProt P42553)
T3 sequence: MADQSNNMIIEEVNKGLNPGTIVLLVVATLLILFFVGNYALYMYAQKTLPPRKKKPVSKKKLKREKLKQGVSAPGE

T4: OsbZIP58 (bZIP transcription factor 58) (rice (Oryza sativa)) (UniProt Q6ZLB0)
T4 sequence: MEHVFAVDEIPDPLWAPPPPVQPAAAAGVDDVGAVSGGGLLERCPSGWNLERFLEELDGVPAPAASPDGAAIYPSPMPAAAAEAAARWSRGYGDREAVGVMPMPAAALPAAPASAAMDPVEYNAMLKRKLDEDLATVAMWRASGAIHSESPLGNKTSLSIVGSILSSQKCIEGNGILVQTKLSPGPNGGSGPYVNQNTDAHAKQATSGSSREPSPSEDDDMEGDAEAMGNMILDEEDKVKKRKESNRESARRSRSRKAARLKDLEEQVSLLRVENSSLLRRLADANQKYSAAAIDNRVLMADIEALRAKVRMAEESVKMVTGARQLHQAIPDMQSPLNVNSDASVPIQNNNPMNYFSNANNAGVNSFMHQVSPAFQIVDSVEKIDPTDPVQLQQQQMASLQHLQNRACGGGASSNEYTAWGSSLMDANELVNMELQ


Assays:
Test in all cases: two-hybrid; ProQuest Two-Hybrid System with Gateway Technology; full-length cDNAs in bait (pDEST32) and prey (pDEST22) vectors; yeast strain MaV203
[1] = target: T1, OsMIF2 (mini zinc finger 2) (rice (Oryza sativa))
[2] = target: T2, OsS1Fa2 (site 1 binding factor a2) (rice (Oryza sativa))
[3] = target: T3, OsS1Fa1 (site 1 binding factor a1) (rice (Oryza sativa))
[4] = target: T4, OsbZIP58 (bZIP transcription factor 58) (rice (Oryza sativa))

| Binder | binding [1] | binding [2] | binding [3] | binding [4] |
| --- | --- | --- | --- | --- |
| OsMIF1 (mini zinc finger 1) (protein, UniProt Q2RB28 1-105) MGPQQDRSAAKPYANGSTAAAAAAGRKENNKVVRYRECQRNHAASIGGHAVDGCREFMASGAEGTAAALLCAACGCHRSFHRREVEAAAAECDCSSDTSSGTGRR | no binding | no binding | no binding | no binding |
| OsMIF2 (mini zinc finger 2) (protein, UniProt B9GBM3 1-105) MGPQQDRSAAKPYANGSTAAAAAAGRKENNKVVRYRECQRNHAASIGGHAVDGCREFMASGADGTAAALLCAACGCHQSFHRREVEAAAAECDCSSDTSSGTGRR |  | no binding | no binding | no binding |

Results, then the binder that gave them:

| binding [1] | binding [2] | binding [3] | binding [4] | Binder |
| --- | --- | --- | --- | --- |
|  | no binding |  |  | OsS1Fa1 (site 1 binding factor a1) (protein, UniProt P42553 1-76) MADQSNNMIIEEVNKGLNPGTIVLLVVATLLILFFVGNYALYMYAQKTLPPRKKKPVSKKKLKREKLKQGVSAPGE |
|  | no binding | no binding |  | OsbZIP58 (bZIP transcription factor 58) (protein, UniProt Q6ZLB0 1-436) MEHVFAVDEIPDPLWAPPPPVQPAAAAGVDDVGAVSGGGLLERCPSGWNLERFLEELDGVPAPAASPDGAAIYPSPMPAAAAEAAARWSRGYGDREAVGVMPMPAAALPAAPASAAMDPVEYNAMLKRKLDEDLATVAMWRASGAIHSESPLGNKTSLSIVGSILSSQKCIEGNGILVQTKLSPGPNGGSGPYVNQNTDAHAKQATSGSSREPSPSEDDDMEGDAEAMGNMILDEEDKVKKRKESNRESARRSRSRKAARLKDLEEQVSLLRVENSSLLRRLADANQKYSAAAIDNRVLMADIEALRAKVRMAEESVKMVTGARQLHQAIPDMQSPLNVNSDASVPIQNNNPMNYFSNANNAGVNSFMHQVSPAFQIVDSVEKIDPTDPVQLQQQQMASLQHLQNRACGGGASSNEYTAWGSSLMDANELVNMELQ |

Reference: publication PMC12431501
